Some results were stated once for a whole list of compounds, not compound by compound.
Key:
Assay type in all cases: in vivo
[1] = tested on: organic phosphorous-resistant adult female Tetranychus urticae; experiment: Efficacy test against Tetranychus urticae (spray on kidney bean plant); details: 125 ppm emulsion sprayed, 25° C., humidity 65%; for insect mortality rate after 3 days: 3 days after spraying; for insect mortality rate after 10 days: after 10 days (so in the source)
[2] = tested on: acaricide-resistant adult female Panonychus citri from Wakayama Prefecture; experiment: Efficacy test against acaricide-resistant Panonychus citri (Wakayama Prefecture); details: 125 ppm emulsion sprayed; for insect mortality rate after 3 days: 3 days after spraying; for insect mortality rate after 10 days: 10 days after spraying
[3] = tested on: adult female Tetranychus kanzawai from Okayama Prefecture; experiment: Efficacy test against Tetranychus kanzawai (spray on kidney bean plant); details: 125 ppm emulsion sprayed; for insect mortality rate after 3 days: 3 days after spraying; for insect mortality rate after 14 days: 14 days after spraying
Procedure: Ten adult female Tetranychus kanzawai acarus from Okayama Prefecture were inoculated onto the first leaves of a kidney bean plant planted in a No. 3 pot 7 to 10 days after germination. Next, an emulsion was prepared having the formula indicated in the aforementioned Preparation example 2. This emulsion was diluted with water to a compound concentration of 500 ppm or 125 ppm after which the diluted liquids were sprayed onto the kidney bean plant. The kidney bean plant was then placed in a temperature-controlled room at a temperature of 25° C. and humidity of 65%. The life and death of the adult insects were investigated 3 days after the spraying. In addition, the development from eggs laid to adult was investigated 14 days after the spraying.
The aforementioned test was carried out on the emulsion containing the Compound No. 2-1 at 500 ppm. As a result, the insect mortality rates after 3 days and 14 days for the compound were 90% or higher.

[4] = tested on: adult female Panonychus citri from Kanagawa Prefecture; experiment: Efficacy test against Panonychus citri (Kanagawa Prefecture, mandarin orange leaf); details: 125 ppm emulsion sprayed; for insect mortality rate after 3 days: 3 days after spraying; for insect mortality rate after 10 days: 10 days after spraying
[5] = tested on: acaricide-resistant adult female Aculops pelekassi; experiment: Efficacy test against Aculops pelekassi (mandarin orange leaf); details: 125 ppm emulsion sprayed

CCN(Oc1cc(C(F)(F)F)cc(Cl)n1)C(=O)NC(C)(C)c1cc(SC)ccn1 [Compound No. 3-9, 1-[6-chloro-4-(trifluoromethyl)pyridine-2-yloxy]-1-ethyl-3-{2-[4-(methylthio)pyridin-2-yl]propan-2-yl}urea]
≥ 90%: insect mortality rate after 3 days [1] | insect mortality rate after 10 days [1] | insect mortality rate after 3 days [2] | insect mortality rate after 10 days [2] | insect mortality rate after 3 days [3] | insect mortality rate after 14 days [3] | insect mortality rate after 3 days [4] | insect mortality rate after 10 days [4]

CCN(Oc1cc2sc(C(F)(F)F)nc2cn1)C(=O)NC(C)(C)c1ccccn1 [Compound No. 1-11, 1-ethyl-3-[2-(pyridin-2-yl)propan-2-yl]-1-[2-(trifluoromethyl)thiazolo[4,5-c]pyridin-6-yloxy]urea]
≥ 90%: insect mortality rate after 3 days [1] | insect mortality rate after 10 days [1] | insect mortality rate after 3 days [3] | insect mortality rate after 14 days [3]

CCN(OCc1ccccc1)C(=O)NC(C)(C)c1cc(SC)ccn1 [Compound 20 in Example 4, 1-Benzyloxy-1-ethyl-3-{2-[4-(methylthio)pyridin-2-yl]propan-2-yl}urea]
≥ 90%: insect mortality rate after 3 days [3] | insect mortality rate after 14 days [3]

CCN(Oc1ccc2ncsc2c1)C(=O)NC(C)(C)c1ccccn1 [Compound No. 1-1, 1-[benzo(d)thiazol-6-yloxy]-1-ethyl-3-[2-(pyridin-2-yl)propan-2-yl]urea]
≥ 90%: insect mortality rate after 3 days [1] | insect mortality rate after 10 days [1] | insect mortality rate after 3 days ([5]; 3 days after spraying) | insect mortality rate after 10 days ([5]; 10 days after spraying) | insect mortality rate after 3 days [2] | insect mortality rate after 10 days [2] | insect mortality rate after 3 days [3] | insect mortality rate after 14 days [3] | insect mortality rate after 3 days [4] | insect mortality rate after 10 days [4]

CCN(Oc1ccc2ncsc2n1)C(=O)NC(C)(C)c1ccccn1 [Compound No. 1-2, 1-ethyl-3-[2-(pyridine-2-yl)propan-2-yl]-1-(thiazolo[5,4-b]pyridine-5-yloxy)urea]
≥ 90%: insect mortality rate after 3 days [1] | insect mortality rate after 10 days [1] | insect mortality rate after 3 days [4] | insect mortality rate after 10 days [4]

Reference: patent publication US20150099883A1, “ARYLOXYUREA COMPOUND AND PEST CONTROL AGENT” (NIPPON SODA CO., LTD., priority 2012, published 2015)
